Experimental data published in publication PMC7429868.
Results are given in words; binding and its absence hold for the method and conditions named. In cells and extracts the contact can be indirect. Some results given as binding are weak or reduced against the parent protein; the word gives no strength.

By UniProt entry, the sequences of proteins in these tests, tags left out.
UniProt P09936: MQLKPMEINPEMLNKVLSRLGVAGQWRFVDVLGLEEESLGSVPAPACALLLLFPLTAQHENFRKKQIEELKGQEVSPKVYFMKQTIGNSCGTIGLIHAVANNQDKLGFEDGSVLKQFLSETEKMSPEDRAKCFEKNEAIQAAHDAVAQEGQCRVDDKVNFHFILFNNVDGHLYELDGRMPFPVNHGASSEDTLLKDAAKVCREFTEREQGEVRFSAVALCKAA
UniProt P16671: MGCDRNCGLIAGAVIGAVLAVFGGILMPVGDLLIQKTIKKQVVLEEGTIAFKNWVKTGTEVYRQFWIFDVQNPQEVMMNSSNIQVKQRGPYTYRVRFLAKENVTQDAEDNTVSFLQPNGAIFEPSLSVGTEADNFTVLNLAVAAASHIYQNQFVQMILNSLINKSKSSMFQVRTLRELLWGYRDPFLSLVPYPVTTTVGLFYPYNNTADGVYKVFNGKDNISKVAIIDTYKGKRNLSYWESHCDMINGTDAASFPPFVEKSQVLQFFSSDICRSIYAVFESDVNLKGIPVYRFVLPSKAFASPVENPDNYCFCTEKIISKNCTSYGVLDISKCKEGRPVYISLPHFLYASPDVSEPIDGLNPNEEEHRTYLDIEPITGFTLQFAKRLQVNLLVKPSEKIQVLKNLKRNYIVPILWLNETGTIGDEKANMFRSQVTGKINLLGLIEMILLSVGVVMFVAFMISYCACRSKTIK

Biological target: Ubiquitin C-terminal hydrolase 1 (UCHL1) (not stated (endogenous; human THP1, murine RAW264.7 or mouse peritoneal macrophages were used in the paper)) (UniProt P09936)
Assay: co-IP; antibody (anti-CD36 or anti-UCHL1) bound to dynabeads for 16-24 h, rotated with cell lysate for 1 h, washed with PBS-T, western blot for the other protein; endogenous proteins

For “CD36 (scavenger receptor) (from UniProt P16671 1-472)”, the binding was “binds”.
